Consider five sequences from patent US20020061531.

For series [1], the system named is anti-BPDE-DNA monoclonal antibody 8E11 (Mus musculus). Description: competition with a labelled probe. The settings on record: protein details: BD PharMingen, single-stranded DNA.
Series [2] has the same test system. Put plainly: binding assay. The following applies: CE/LIF, protein details: BD PharMingen, label: 5'-TMR, single-stranded DNA.
The subject of series [3] is anti-BPDE-DNA monoclonal antibody E5. Put plainly: binding assay. The following applies: CE/LIF, protein details: cell supernatant, Shell, label: 5'-TMR, single-stranded DNA.
Series [4] has as its system anti-BPDE-DNA monoclonal antibody 5D11 (Mus musculus). Put plainly: binding assay. The following applies: single (+/-)-anti-BPDE-N2-dG adduct in the SEQ:5 segment; CE/LIF; less complex than 8E11; protein details: BD PharMingen; label: 5'-TMR; single-stranded DNA.
Series [5] has as its system polyclonal mouse IgG (negative control) (Mus musculus). Put plainly: binding assay. The settings on record: single (+/-)-anti-BPDE-N2-dG adduct in the SEQ:5 segment; negative control; protein details: Calbiochem; label: 5'-TMR; single-stranded DNA.
The mark [6] stands for this setting: unmodified control 90-mer, variant of TMR-BPDE-90-mer, heat-denatured.

For at least one entry, the source does not settle the construct or the ends of the probe. For part of these data: A negative result means that nothing was seen under these conditions.

Turning to “CCCATTATGCATAACC [BPDE-16-mer, unlabeled competitor]”, in series [1] (single (+/-)-anti-BPDE-N2-dG adduct at the central G, competes with TMR-BPDE-16-mer and TMR-BPDE-90-mer, primary labeled complex lost above 250 nM, variant of TMR-BPDE-16-mer), the binding result is recorded as “binds”.

With CCCATTATGCATAACC [TMR-BPDE-16-mer], in series [2] (single (+/-)-anti-BPDE-N2-dG adduct at the central G, 1:1 and 1:2 complexes, 80-85% of 24 nM in 1:1 complex at 50-100 nM Ab, tris-glycine pH 8.3), the binding result is “binds”.

With “CCTTAAGCTTCCTCAACCACTTACCATACTCGAGATTCCCATTATGCATAACCGTCATATGCCGCCTCTGACCTTCCTAGAATTCCATCC [BPDE-90-mer, unlabeled competitor]”, in series [1] (single (+/-)-anti-BPDE-N2-dG adduct in the SEQ:5 segment, competes with TMR-BPDE-16-mer, mixed Ab(16mer*)(90mer) complex seen, variant of TMR-BPDE-90-mer, heat-denatured), the binding result was “binds”.

“CCTTAAGCTTCCTCAACCACTTACCATACTCGAGATTCCCATTATGCATAACCGTCATATGCCGCCTCTGACCTTCCTAGAATTCCATCC [TMR control 90-mer (no BPDE), heat-denatured]”: the binding result in series [3] (setting [6]) and in series [2] (setting [6]) was “no binding” each time.

On to “CCTTAAGCTTCCTCAACCACTTACCATACTCGAGATTCCCATTATGCATAACCGTCATATGCCGCCTCTGACCTTCCTAGAATTCCATCC [TMR-BPDE-90-mer, heat-denatured]”, for which the binding result is given as “binds” in series [4]; “binds” in series [3] (single (+/-)-anti-BPDE-N2-dG adduct in the SEQ:5 segment, less complex than 8E11); “binds” in series [2] (single (+/-)-anti-BPDE-N2-dG adduct in the SEQ:5 segment, about 60% of 50 nM bound at ~140 nM Ab, weaker than 16-mer, tris-glycine pH 8.3); “no binding” in series [5].
